Test results: article PMC9950529
No constants are given. Whether binding was seen depends on the method and setting. For part of these data: Binding seen in cells or lysates may run through a third protein. Some binding calls cover weakened binding; strength is not graded here.

Protein sequences, listed by entry. Tags and fused reporters are not part of them. Lines headed by an entry give the natural chain unless they say otherwise; changes in a name come on top.
UniProt Q9DC28: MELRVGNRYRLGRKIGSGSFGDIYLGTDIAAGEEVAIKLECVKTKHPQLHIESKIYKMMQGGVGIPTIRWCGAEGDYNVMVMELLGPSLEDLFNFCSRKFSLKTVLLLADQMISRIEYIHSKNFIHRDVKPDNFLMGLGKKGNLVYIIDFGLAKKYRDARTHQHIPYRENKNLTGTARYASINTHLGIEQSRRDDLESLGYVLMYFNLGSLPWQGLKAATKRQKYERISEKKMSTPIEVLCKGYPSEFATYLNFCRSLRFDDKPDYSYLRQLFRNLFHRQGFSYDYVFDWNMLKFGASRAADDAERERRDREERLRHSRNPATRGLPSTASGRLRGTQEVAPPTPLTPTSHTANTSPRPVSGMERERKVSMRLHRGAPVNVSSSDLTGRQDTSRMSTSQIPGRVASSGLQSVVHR
UniProt O54943: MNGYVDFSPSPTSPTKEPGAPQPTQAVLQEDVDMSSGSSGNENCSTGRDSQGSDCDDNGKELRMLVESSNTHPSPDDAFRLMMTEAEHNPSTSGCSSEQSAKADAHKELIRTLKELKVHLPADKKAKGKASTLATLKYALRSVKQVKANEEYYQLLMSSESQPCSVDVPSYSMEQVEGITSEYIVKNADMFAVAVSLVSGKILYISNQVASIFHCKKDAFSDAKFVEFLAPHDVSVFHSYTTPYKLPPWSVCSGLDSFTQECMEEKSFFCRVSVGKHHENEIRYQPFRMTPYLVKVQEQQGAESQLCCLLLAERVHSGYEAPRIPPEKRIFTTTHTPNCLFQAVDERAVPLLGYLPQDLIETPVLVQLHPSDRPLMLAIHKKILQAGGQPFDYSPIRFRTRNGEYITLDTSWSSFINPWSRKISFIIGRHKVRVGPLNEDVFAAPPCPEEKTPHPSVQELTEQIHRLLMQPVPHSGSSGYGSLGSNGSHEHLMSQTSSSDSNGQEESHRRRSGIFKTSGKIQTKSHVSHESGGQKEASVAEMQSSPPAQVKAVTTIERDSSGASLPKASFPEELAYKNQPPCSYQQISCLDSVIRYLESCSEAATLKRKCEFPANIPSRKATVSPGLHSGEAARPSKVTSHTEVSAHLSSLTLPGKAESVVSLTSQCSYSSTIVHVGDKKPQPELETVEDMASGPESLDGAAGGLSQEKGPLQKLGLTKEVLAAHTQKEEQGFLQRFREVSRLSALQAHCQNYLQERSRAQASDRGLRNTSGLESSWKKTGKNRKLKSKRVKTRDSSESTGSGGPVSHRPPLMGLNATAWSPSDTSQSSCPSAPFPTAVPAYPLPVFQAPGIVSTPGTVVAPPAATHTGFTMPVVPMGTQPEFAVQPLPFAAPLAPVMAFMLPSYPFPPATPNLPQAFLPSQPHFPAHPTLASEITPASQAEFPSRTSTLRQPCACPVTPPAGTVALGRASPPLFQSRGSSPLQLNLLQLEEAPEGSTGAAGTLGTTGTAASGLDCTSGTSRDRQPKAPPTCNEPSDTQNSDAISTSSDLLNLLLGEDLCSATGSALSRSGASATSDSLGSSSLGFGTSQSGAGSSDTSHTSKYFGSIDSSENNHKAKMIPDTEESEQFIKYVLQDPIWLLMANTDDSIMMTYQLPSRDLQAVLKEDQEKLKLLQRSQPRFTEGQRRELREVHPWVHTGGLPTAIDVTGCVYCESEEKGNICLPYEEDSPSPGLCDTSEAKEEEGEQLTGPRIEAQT
UniProt Q9WTL8: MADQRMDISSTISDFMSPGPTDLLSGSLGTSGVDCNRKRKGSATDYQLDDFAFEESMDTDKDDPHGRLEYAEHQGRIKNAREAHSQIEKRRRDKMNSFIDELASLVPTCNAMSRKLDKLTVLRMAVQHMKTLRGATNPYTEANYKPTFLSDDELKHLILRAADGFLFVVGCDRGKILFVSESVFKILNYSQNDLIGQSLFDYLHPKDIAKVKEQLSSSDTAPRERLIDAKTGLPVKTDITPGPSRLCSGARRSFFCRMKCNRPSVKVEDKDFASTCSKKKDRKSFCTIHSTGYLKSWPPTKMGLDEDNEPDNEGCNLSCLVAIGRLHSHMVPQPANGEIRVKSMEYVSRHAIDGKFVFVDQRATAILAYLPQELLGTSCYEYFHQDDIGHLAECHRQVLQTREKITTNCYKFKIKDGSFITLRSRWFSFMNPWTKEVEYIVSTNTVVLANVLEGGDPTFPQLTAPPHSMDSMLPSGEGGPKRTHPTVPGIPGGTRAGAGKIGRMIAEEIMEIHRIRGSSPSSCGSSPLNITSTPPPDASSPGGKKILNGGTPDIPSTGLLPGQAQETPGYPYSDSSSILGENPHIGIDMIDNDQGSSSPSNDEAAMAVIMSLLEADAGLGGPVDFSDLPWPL

Experiments:
[1] = target: T1, CLOCK (mouse (endogenous in mouse liver)) (UniProt O08785); test: co-sedimentation; 10-30% glycerol gradient (25 mM Tris pH 8.0, 100 mM NaCl, 2 mM DTT), SW60 54,000 rpm, 6 h, 4 °C; mouse liver nuclear extracts of ZT0, ZT2, ZT6, ZT12, ZT16, ZT19 mixed with reference proteins; fractions analysed by Western blot
T1 sequence: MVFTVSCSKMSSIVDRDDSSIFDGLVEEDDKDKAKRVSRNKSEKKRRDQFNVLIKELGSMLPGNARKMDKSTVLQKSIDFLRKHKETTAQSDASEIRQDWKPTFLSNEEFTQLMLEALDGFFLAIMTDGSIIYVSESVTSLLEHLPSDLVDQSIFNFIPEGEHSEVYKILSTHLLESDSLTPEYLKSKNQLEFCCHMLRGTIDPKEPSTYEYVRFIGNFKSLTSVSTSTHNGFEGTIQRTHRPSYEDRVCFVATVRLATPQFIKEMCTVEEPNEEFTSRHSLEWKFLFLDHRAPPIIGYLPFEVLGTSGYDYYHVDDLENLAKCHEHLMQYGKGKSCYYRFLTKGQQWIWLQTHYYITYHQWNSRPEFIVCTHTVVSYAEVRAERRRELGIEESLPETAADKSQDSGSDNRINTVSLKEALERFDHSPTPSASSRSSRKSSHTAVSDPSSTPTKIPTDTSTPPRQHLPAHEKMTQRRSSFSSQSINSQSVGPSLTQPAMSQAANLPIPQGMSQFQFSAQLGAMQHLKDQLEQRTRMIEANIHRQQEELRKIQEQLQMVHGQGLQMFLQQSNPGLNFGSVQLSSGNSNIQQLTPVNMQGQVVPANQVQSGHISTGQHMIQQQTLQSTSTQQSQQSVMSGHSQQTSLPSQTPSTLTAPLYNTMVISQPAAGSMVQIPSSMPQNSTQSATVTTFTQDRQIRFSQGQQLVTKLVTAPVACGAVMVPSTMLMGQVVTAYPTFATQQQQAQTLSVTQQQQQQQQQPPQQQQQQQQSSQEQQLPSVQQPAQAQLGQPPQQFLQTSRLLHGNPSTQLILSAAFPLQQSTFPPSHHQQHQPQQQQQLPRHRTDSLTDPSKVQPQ

[2] = target: CK1δ (mouse (endogenous in mouse liver)) (UniProt Q9DC28); test: as above
[3] = target: T1, CLOCK (mouse (endogenous in mouse liver)); test: SEC; Superose 6 Increase 10/300 GL, room temperature, 10 mM Hepes pH 7.9, 200 mM KCl, 1.5 mM MgCl2, 0.1 mM EGTA, 0.1 mM EDTA, 20% glycerol; mouse liver nuclear extracts of ZT0, ZT2, ZT6, ZT12, ZT16, ZT19 after ultracentrifugation; fractions analysed by Western blot
[4] = target: CK1δ (mouse (endogenous in mouse liver)) (UniProt Q9DC28); test: as above
[5] = target: PER2 (mouse (endogenous in mouse liver)) (UniProt O54943); test: co-sedimentation; 10-30% glycerol gradient (25 mM Tris pH 8.0, 100 mM NaCl, 2 mM DTT), SW60 54,000 rpm, 6 h, 4 °C; mouse liver nuclear extracts of ZT0, ZT2, ZT6, ZT12, ZT16, ZT19 mixed with reference proteins; fractions analysed by Western blot
[6] = target: PER2 (mouse (endogenous in mouse liver)) (UniProt O54943); test: SEC; Superose 6 Increase 10/300 GL, room temperature, 10 mM Hepes pH 7.9, 200 mM KCl, 1.5 mM MgCl2, 0.1 mM EGTA, 0.1 mM EDTA, 20% glycerol; mouse liver nuclear extracts of ZT0, ZT2, ZT6, ZT12, ZT16, ZT19 after ultracentrifugation; fractions analysed by Western blot

Row | binding [1] | binding [2] | binding [3] | binding [4] | binding [5] | binding [6] | Substance
1 | binds | no binding | binds | no binding | – | – | BMAL1 (from UniProt Q9WTL8 1-632)
2 | – | – | – | – | binds | binds | CK1δ (from UniProt Q9DC28 1-415) (enzyme)
